# Data published in the supplement of paper PMC3334620.
# Whole data set: some 33,000 sequences, median “E-score (-0.5 to 0.5)” near -0.0059, cut for the highest 2% near 0.26. The list shows a part of the results.
# Biological target: T1, Cin5 (UniProt P40917)
# T1 sequence: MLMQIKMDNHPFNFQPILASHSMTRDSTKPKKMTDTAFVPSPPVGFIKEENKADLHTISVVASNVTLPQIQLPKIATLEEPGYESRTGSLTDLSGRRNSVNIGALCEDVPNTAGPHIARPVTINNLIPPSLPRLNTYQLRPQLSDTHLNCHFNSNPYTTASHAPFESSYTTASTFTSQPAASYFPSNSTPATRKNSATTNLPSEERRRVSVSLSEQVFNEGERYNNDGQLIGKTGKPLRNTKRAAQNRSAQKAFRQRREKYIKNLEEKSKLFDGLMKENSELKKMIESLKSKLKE
# Assay: PBM E-score (8-mer binding enrichment) (E-score (-0.5 to 0.5)); higher = stronger / more preferred TF binding
# Conditions: protein concentration: 100 nM; construct: GST-full length
# In short: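 Yeast transcription factors, full-length or as DNA-binding domains, were expressed with a GST tag using PURExpress in vitro transcription/translation. At about 100-200 nM they were applied to universal all-10-mer Agilent arrays, double-stranded by primer extension on fresh or once-stripped slides. Fluorescent anti-GST detected bound protein, and masliner normalised the scans. E-scores for ungapped eight-base words, pooled with reverse complements, came from the Universal PBM Analysis Suite.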
row,Sequence,PBM E-score
1,ATCGCACA,-0.0249
2,GCGCATGA,-0.054
3,CATGCACA,0.156
4,CAACCCTG,0.04
5,ACCTACGT,0.0549
6,GGGACTTA,-0.0902
7,CTACGAAG,-0.213
8,CCTCTCGA,-0.189
9,AGCATCCG,0.00491
10,ATGCTCTG,-0.126
11,CAATGTTC,-0.12
12,GGATTGTA,0.0819
13,ACGGCGCC,-0.238
14,AACGTGGG,-0.168
15,GATTTTTA,-0.0301
16,CCTTCGAG,-0.182
17,CCGGCGTA,-0.229
18,AACGTGCA,0.0487
19,GATAGCCC,-0.169
20,CATCTGGA,-0.0512
21,CTGCGAAA,-0.0552
22,CGATCACC,0.155
23,ACGACTCT,0.0094
24,CTGTAGTA,0.208
25,AGCTGACT,0.142

row,Sequence,PBM E-score
1,AGCACTAG,0.0301
2,GTTCATCA,0.0948
3,GCAGATAC,0.0167
4,CTGATATA,0.106
5,CCGGGTAA,0.0678
6,GACTACCA,-0.0759
7,CGAGCCCC,-0.189
8,GAGGCTGC,-0.139
9,CTGTATCA,-0.097
10,GAAGAATC,0.00251
11,CAGTTCGA,0.0222
12,CACTCTGA,-0.0735
13,AGTGGGAA,0.0405
14,ATTGTTGG,0.137
15,CGATACCA,0.0461
16,CCAATAGA,-0.01
17,ACATTCTA,-0.0488
18,AACCGTGC,-0.0844
19,CTGACTAA,0.36
20,CGGTAGCC,-0.0198
21,GGGTATAA,0.0581
22,AGACGACT,-0.122
23,GGATATCC,0.088
24,GAATATCC,0.0289
25,ATTGCTAA,0.203

row,Sequence,PBM E-score
1,CACATTAG,-0.0363
2,CGGAACTA,0.205
3,CCGCCTAG,0.0308
4,AATGGTCC,0.0864
5,AGCAGTAG,-0.142
6,GTAGCTAC,0.0441
7,AAGCGCAA,0.0939
8,AGACCAGA,-0.033
9,GATCCGCC,-0.0025
10,ACTGTGGA,-0.0659
11,AGGGAGGA,-0.321
12,ATTCCCTG,0.0327
13,GTCGAGCA,-0.284
14,CGCCTGAC,0.115
15,ATCTGCGA,0.00217
16,CCCGATCG,0.0791
17,ATGGAGTC,-0.0755
18,GAACTGCC,-0.0591
19,GACCGATA,0.0301
20,CGGTGGAA,-0.0968
21,CAAGTCAG,-0.0103
22,AACTTAAG,-0.095
23,GAAGATAA,0.136
24,AGGGAAAG,-0.113
25,ACGCAACT,0.178

row,Sequence,PBM E-score
1,CTTGGATC,0.0513
2,GCAAGCGA,0.0653
3,CGACAACC,-0.13
4,AACCAAGA,0.102
5,AAGGGATA,0.058
6,CAGCTCGC,0.00031
7,AGTTGAAT,0.259
8,AAAGAGCT,-0.177
9,AATTTCTC,0.164
10,TCCACCAA,0.0494
11,CTGAAAGC,0.0475
12,ATGGACTG,-0.0285
13,AGCTATAG,-0.209
14,CGACTACA,0.0644
15,AGCAAAGA,-0.00928
16,GGGGGTAC,-0.362
17,AGGACCGC,0.01
18,GAAATTTC,-0.0536
19,GAGTACTA,0.0661
20,CGTGCGCC,0.0322
21,ATGTGCGA,-0.106
22,GCGGATAC,0.0777
23,ATGGCGGA,-0.174
24,ATTGGTCC,0.0852
25,CACCAAGA,-0.0891

row,Sequence,PBM E-score
1,AACGTTGG,0.0395
2,AGGAGACT,-0.208
3,CACGCTCA,0.126
4,AGTGGCAA,-0.00498
5,ATAAGTCG,0.151
6,AACCCTCC,-0.209
7,CTAAAGGA,-0.186
8,GGGTAGGA,-0.0656
9,CCGAACGG,-0.0763
10,CTCCACAA,0.0534
11,GCCCAAAA,0.02
12,ATTTTTTG,0.187
13,CAGTCATG,-0.0937
14,CAATACTA,0.0648
15,AACGACTT,-0.234
16,CTTAGAAG,-0.0753
17,GACTCCTA,-0.074
18,AGCGTATG,0.0127
19,AGCATCGC,-0.174
20,AAACGTTG,-0.0943
21,CCCGGGTA,-0.0532
22,CATTCTAC,0.1
23,ACGTCGTG,0.0103
24,CCCCACAG,-0.225
25,GATCTACC,0.00231

row,Sequence,PBM E-score
1,AACATACA,0.0814
2,CGGCTTAA,0.19
3,ACCGTGCG,-0.139
4,GTTCCTCA,-0.244
5,AGCAATAG,-0.0777
6,GTAGGCAA,-0.0158
7,AGAGGCTA,-0.114
8,AGTTTCCA,-0.0283
9,ATTGCTGG,-0.0177
10,TATCCACA,0.154
11,CTATGGAC,-0.0786
12,ACGTCTTG,-0.161
13,CGTAGCTA,-0.0516
14,AATAATCC,0.0532
15,ACCCGCCC,0.129
16,AACTCTGG,0.0344
17,GTACCTAA,-0.0371
18,CTGGCTAC,-0.24
19,CGGGCTGC,-0.116
20,GATTTATA,0.179
21,AACCCTGC,-0.0766
22,ATGTGTCA,0.135
23,CACATATG,0.0201
24,ACAATCCT,0.00738
25,TCCGATAA,-0.151

row,Sequence,PBM E-score
1,AGTGGATA,0.171
2,GAGTATGA,0.141
3,ACTATTGA,0.211
4,CGGGGGAG,-0.389
5,TGCACTAA,0.189
6,AGATTCGG,0.0517
7,AGCACATC,0.148
8,GACGGATA,0.154
9,ATCGCTTA,0.0758
10,GTCGTTAA,-0.0716
11,CATTATGA,0.13
12,CACTAGTG,-0.00593
13,CCCAAAAC,0.111
14,AGCCCCTC,-0.00972
15,CCAGCTTC,-0.145
16,CGCACTAC,-0.0003
17,CCCCTACG,-0.194
18,CACGGTAG,-0.201
19,ACCACTTG,0.00271
20,CAAGGATA,0.0136
21,TAATTATA,0.351
22,CTGAATAA,0.182
23,GGCGAAGA,-0.129
24,AGACGGGG,-0.257
25,ATAACCCC,-0.0179

# Exported bar-delimited: part of the list above
row | Sequence | PBM E-score
2 | GAGTATGA | 0.141
3 | ACTATTGA | 0.211

# Remaining list, next part:

row,Sequence,PBM E-score
1,CAGTACTA,0.0853
2,CCGTGTAC,0.102
3,ACCAAGGA,0.0515
4,ATCGGGGC,-0.104
5,AATAGACT,0.0768
6,ACTCTCCC,-0.0808
7,GAGCGATC,-0.00059
8,TCGGCAAA,-0.0563
9,ATCGCACG,-0.102
10,GACATAGC,0.0934
11,AAGCGCGA,0.116
12,GATCTTGC,0.153
13,CGACCAGA,-0.0284
14,ATCAGTTG,0.209
15,CTTCCATC,-0.032
16,GACGAAGC,-0.0592
17,GGAACGAC,-0.21
18,CGTCCGAC,-0.246
19,CATCCCCC,-0.403
20,ATATAGTA,0.235
21,GCCGCGAA,-0.133
22,CTAATAGA,0.134
23,ACCAGGAG,-0.226
24,ACAAGACC,-0.15
25,AAGTAGAA,0.0909

# Another view of some results above:
row	Sequence	PBM E-score
1	CACATTAG	-0.0363
2	CGGAACTA	0.205
3	CCGCCTAG	0.0308
4	AATGGTCC	0.0864

# Reprinted at random: 2 entries already listed, in no set order.
row,Sequence,PBM E-score
19,CATCCCCC,-0.403
13,CGACCAGA,-0.0284

# (further entries)

row,Sequence,PBM E-score
1,CTCGAAGC,-0.239
2,CGAAATAG,0.00249
3,AGAGGTAC,-0.218
4,TCTGCGCA,-0.111
5,CTCATAAG,0.135
6,AATTCCTC,0.0202
7,CCTATATC,0.111
8,GTCGTGGA,-0.0818
9,ACATGAGT,-0.0812
10,GATTTTAC,-0.0152
11,ACTTGAGC,-0.218
12,CTATCTAC,0.0602
13,GCCTGACA,-0.101
14,TGGAGAAA,-0.101
15,TACCAACA,0.118
16,TCTGTGCA,0.118
17,AATCCCGC,0.162
18,CCAATCTA,0.118
19,AGTAAGTC,0.0234
